## Percent effect of library compounds

From ChEMBL document CHEMBL3988442, “University of Dundee, Small-Polar-MMV Screening Library” (2021).

T. brucei: 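Whole-parasite assay of Trypanosoma brucei over 72 hours; the read-out is not stated. Tested at 30 µM. Higher reads as stronger inhibition (inferred: compounds with an IC50 in retests scored well above the rest). Values scatter widely below zero; nearly all retest evidence comes from the higher of the two concentrations used. About 64,000 compounds were tested under these conditions; 1.5% (about 940) showed 50% or more at least once.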
Toxoplasma: 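Assay of Toxoplasma gondii numbers, read through their beta-galactosidase reporter with a colour substrate. Compounds at 10 µM. The record gives no direction; the compounds picked for IC50 retests had high values, so higher reads as fewer parasites. Of about 67,000 compounds tested this way, about 260 (0.38%) reached 50% or more in at least one test.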

The filed quantity is “Percent Effect” (%).
The controls that fix the scale are not given in the record; negative values are as filed.
Compounds were drawn at random from those tested, without regard to their results.
A dash means the value is not listed here; it may have been measured.

Compound	T. brucei	Toxoplasma
Cc1noc(C)c1CCCNC(=O)C1CCN(C(=O)C2CC2)CC1	6.136%	-9.819%
O=C(O)C(F)(F)F.O=C(O)C(F)(F)F.[H][C@@]12CCN(Cc3cccs3)C[C@]1(COc1cccnc1)CCO2	-15.41%	7.287%
CN1CCN(Cc2nnc(C3CCN(C4CCCCC4)CC3)n2C)CC1	-24.93%	-22.76%
O=C(CC1CC1)N1CCC2(COCc3cnc(-c4ccccc4)nc32)C1 (stereo not shown)	-36.22%	3.195%
CC(NC(=O)NCCCn1cccn1)c1ccc2c(c1)OCCCO2 (stereo not shown)	-	14.03%
CCNC(=O)[C@@H]1CCCN1C(=O)c1cccc(CCC(C)(C)O)c1	-34.59%	5.535%
Cc1ccc2nc(C3CCCN3Cc3nnc(C)s3)[nH]c2c1 (stereo not shown)	-48.25%	4.357%
CC(C)(C)c1nnc2n1C(C(=O)N1CCOCC1)CC2 (stereo not shown)	-	12.62%
Cc1n[nH]c(C)c1CNC(=O)N1CCCC(Cc2nccn2C)C1 (stereo not shown)	-17.25%	9.517%
CN(Cc1ccco1)C1COC2(CCN(Cc3nccs3)CC2)C1.O=C(O)C(F)(F)F.O=C(O)C(F)(F)F (stereo not shown)	-7.244%	11.3%
O=C(O)C(F)(F)F.[H][C@]12C[C@@H](Cn3cncn3)N(C(C)C)[C@@]1([H])CCN(Cc1cccs1)C2	-6.815%	12.51%
CCCc1cnc(C)nc1N1CCC2(CC1)CNC(=O)O2	-33.73%	1.533%
O=C(O)C(F)(F)F.[H][C@@]12COC[C@H](C(=O)N3CCCCO3)[C@]1([H])CN(Cc1cc(C)c(C)o1)C2	-527%	-1.642%
CNc1cc2c(nn1)CCN(C(=O)c1ccc3c(c1)CCC3)C2	-	10.6%
Cn1cc(-c2csc(N3CCOCC3)n2)cn1	15.28%	0.4071%
Cc1ccc(-c2cn3c(n2)CO[C@@H](CNCc2cnn(C)c2)C3)cc1	-30.43%	11.22%
COc1ccc2c(c1)OC1(CCN(Cc3ccc(C)cc3)CC1)CC2=O	-15.07%	22.18%
COCCn1cc(NC(=O)NCC(C)N2CCOCC2)cn1 (stereo not shown)	-22.83%	-6.285%
CN1C(=O)CC(C(=O)O)C12CCN(Cc1ccc(F)cc1Cl)CC2 (stereo not shown)	10.97%	-4.515%
Cc1ccc(C(=O)NC2CCN(Cc3nc(CC(C)C)no3)CC2)s1	-29.33%	12.98%
[H][C@]12CC[C@]([H])(CN(C(=O)N(C)C)C1)N(Cc1nnc(C3CC3)o1)C2	-29.28%	-8.17%
Cc1cc(N(C)C)cc(C2CCN(S(=O)(=O)c3cccs3)C2)n1 (stereo not shown)	-14.22%	-21.53%
O=C(NCCn1cccn1)Nc1cc(C(=O)N2CCOCC2)ccc1Cl	-	-2.608%
CN(Cc1ccc2c(c1)OCO2)C(=O)c1ccn(C)c(=O)c1	-0.1521%	-1.479%
CC(C)(C)Oc1ccc(CN)c(C(F)(F)F)c1	-9.78%	4.368%
Cn1cc(N2CCC(Nc3ccc4nccnc4n3)C2=O)cn1 (stereo not shown)	4.343%	1.2%
Cn1nccc1CNC(=O)CCn1nc(C(F)(F)F)cc1C1CC1	2.28%	8.36%
CCCc1n[nH]c(C2CN(C(=O)c3cccnc3N(C)C)CCO2)n1 (stereo not shown)	-6.196%	5.492%
O=C(c1ccc(Cl)cc1)N1CCC2(C1)C(=O)Nc1ccccc12 (stereo not shown)	-	2.217%
Cc1ccccc1N1CCCN(CC2(O)CCCNC2)CC1 (stereo not shown)	24.63%	-0.5945%
CCC1COCCN1C(=O)NCc1nccn1CCc1ccccc1 (stereo not shown)	-2.162%	1.262%
O=C1CO[C@H](c2ccc(NS(=O)(=O)c3ccccc3)cc2)[C@@H](CO)N1	-9.492%	3.297%
COc1c(CC2CC(CO)=NO2)c(Br)c2c(c1OC)OCO2 (stereo not shown)	-46.93%	-1.831%
COc1ncccc1CN1CCn2c(Cn3cncn3)cnc2C1	-8.782%	-1.608%
Cc1cc(C(O)CCNC(=O)COc2ccccc2F)c(C)o1 (stereo not shown)	10.13%	16.09%
Brc1ccc(C2(CNCc3cc[nH]c3)CCOCC2)cc1	-35.86%	-1.618%
CC(C)CN1CC2(CCN(C(=O)c3nc4ncccn4n3)CC2)CC1=O	-16.41%	-17.87%
Cc1nc(C)n(CC2CCCN(Cc3nnc(C(C)(C)C)o3)C2)n1 (stereo not shown)	14.46%	-3.972%
Cc1cc(N(C)C)nc(C2CCCNC2)n1.Cl (stereo not shown)	-	1.486%
[H][C@]12CC[C@](O)(CC1)C(CN1CCOCC1)N2C(=O)N1CCOCC1 (stereo partly shown)	-7.766%	4.485%
Cc1nc(C)c(C(C)NCc2c(C(C)C)nn(C)c2N(C)C)s1 (stereo not shown)	-32.14%	4.651%

Some entries from above, unchanged:

Compound,T. brucei,Toxoplasma
COc1ccc2c(c1)OC1(CCN(Cc3ccc(C)cc3)CC1)CC2=O,-15.07%,22.18%
COc1c(CC2CC(CO)=NO2)c(Br)c2c(c1OC)OCO2 (stereo not shown),-46.93%,-1.831%
CN1CCN(Cc2nnc(C3CCN(C4CCCCC4)CC3)n2C)CC1,-24.93%,-22.76%
CNc1cc2c(nn1)CCN(C(=O)c1ccc3c(c1)CCC3)C2,-,10.6%
Cc1cc(N(C)C)nc(C2CCCNC2)n1.Cl (stereo not shown),-,1.486%